Measured values: paper doi:10.1101/870071 (bioRxiv, 2019)
Where a chain is given by its changes, count along the chain named. These are yes or no findings as the source states them, for the method shown. For some assays here: In cells and extracts the contact can be indirect. Some entries that bind do so weakly or less than the wild type. For some assays here: Tags and fused reporters may be left off the sequences shown. Blank lines part the entries; values can stand above or below the molecule they belong to.

Protein sequences, listed by entry. Tags and fused reporters are not part of them. Lines headed by an entry give the natural chain unless they say otherwise; changes in a name come on top. Chains listed by the source or under a name are the forms on record and can include a tag or linker.
UniProt Q9UPT5: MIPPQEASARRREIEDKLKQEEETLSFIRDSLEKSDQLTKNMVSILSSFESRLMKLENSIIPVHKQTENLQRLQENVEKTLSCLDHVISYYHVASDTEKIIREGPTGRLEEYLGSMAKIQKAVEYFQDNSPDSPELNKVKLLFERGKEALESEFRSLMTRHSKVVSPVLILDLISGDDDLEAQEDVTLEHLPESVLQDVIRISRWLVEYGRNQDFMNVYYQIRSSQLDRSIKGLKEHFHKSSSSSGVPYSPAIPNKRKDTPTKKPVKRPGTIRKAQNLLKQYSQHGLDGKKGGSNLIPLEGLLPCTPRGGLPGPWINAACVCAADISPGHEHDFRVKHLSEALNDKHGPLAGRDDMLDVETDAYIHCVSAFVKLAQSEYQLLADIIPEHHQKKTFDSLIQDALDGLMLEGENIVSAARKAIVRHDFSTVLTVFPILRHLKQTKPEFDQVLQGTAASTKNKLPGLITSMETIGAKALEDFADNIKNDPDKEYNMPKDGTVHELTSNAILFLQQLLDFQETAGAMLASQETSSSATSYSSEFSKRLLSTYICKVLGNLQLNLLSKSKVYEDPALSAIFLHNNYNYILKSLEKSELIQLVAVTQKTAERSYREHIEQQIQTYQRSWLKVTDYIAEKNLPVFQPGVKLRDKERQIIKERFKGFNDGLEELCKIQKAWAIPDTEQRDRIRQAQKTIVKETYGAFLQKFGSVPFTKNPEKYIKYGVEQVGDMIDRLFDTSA
UniProt P19658: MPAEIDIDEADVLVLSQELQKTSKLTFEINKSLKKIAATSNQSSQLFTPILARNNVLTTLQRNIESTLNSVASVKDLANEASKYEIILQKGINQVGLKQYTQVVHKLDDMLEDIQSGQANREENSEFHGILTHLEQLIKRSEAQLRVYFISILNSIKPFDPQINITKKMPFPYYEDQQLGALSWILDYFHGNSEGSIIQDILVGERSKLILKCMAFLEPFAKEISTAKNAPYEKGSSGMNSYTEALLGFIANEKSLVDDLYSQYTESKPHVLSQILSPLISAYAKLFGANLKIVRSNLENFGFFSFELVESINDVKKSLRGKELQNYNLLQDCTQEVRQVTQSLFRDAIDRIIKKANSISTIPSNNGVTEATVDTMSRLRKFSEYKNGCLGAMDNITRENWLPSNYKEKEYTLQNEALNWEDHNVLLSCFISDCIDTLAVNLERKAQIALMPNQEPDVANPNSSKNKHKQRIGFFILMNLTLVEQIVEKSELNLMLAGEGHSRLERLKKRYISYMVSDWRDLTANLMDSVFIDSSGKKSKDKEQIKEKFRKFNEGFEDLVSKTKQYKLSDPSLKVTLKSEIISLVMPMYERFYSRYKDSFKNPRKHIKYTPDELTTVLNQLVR
full length endogenous GIV (Q3V6T2-3, form named): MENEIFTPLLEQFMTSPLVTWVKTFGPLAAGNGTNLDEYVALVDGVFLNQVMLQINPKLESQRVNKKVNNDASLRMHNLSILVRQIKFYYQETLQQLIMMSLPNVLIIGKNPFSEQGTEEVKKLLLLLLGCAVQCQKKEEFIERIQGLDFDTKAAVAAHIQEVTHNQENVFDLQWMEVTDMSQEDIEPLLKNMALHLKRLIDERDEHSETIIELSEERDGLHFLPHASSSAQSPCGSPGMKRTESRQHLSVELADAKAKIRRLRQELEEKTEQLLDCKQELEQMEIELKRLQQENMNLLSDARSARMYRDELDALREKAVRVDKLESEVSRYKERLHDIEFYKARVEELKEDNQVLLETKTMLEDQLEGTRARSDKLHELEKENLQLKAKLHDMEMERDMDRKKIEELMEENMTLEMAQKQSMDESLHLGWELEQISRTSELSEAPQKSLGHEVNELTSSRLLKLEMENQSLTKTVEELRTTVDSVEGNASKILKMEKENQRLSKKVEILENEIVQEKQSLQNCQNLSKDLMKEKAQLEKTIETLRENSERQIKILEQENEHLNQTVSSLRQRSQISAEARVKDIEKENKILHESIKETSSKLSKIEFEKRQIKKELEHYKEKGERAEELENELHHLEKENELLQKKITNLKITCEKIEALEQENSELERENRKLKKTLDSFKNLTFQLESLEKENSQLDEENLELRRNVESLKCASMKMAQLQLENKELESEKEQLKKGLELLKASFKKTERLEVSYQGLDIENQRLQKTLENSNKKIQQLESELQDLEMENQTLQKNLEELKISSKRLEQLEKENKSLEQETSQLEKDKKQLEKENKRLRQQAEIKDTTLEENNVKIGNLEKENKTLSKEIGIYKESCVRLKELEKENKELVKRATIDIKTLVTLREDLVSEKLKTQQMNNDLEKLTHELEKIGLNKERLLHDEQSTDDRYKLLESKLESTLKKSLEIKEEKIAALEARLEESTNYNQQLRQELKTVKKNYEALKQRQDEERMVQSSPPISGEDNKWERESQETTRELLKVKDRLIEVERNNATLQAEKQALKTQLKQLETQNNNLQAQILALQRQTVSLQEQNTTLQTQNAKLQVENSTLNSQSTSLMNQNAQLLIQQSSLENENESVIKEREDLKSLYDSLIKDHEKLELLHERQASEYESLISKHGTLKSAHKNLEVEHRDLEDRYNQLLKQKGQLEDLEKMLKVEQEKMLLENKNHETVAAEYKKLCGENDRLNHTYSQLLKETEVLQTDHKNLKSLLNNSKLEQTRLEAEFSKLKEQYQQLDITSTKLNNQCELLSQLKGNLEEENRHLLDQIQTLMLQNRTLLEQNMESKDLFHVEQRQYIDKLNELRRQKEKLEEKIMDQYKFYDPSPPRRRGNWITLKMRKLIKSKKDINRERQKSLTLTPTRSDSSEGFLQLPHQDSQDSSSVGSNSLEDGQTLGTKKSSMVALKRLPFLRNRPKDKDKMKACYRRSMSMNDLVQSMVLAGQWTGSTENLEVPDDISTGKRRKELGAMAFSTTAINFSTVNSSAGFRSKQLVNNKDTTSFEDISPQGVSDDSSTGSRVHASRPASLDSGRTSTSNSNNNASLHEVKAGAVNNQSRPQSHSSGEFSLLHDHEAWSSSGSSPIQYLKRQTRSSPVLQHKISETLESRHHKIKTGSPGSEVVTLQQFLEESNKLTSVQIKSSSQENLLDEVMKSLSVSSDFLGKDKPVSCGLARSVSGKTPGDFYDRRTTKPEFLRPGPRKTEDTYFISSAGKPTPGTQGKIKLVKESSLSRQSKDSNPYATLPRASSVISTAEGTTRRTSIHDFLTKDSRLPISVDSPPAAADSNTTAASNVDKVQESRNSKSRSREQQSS

Legend:
Experiment in all cases: pull-down
GST-Bem1p F321A (yeast) = target: T1, GST-Bem1p F321A (yeast) (UniProt P29366)
T1 sequence: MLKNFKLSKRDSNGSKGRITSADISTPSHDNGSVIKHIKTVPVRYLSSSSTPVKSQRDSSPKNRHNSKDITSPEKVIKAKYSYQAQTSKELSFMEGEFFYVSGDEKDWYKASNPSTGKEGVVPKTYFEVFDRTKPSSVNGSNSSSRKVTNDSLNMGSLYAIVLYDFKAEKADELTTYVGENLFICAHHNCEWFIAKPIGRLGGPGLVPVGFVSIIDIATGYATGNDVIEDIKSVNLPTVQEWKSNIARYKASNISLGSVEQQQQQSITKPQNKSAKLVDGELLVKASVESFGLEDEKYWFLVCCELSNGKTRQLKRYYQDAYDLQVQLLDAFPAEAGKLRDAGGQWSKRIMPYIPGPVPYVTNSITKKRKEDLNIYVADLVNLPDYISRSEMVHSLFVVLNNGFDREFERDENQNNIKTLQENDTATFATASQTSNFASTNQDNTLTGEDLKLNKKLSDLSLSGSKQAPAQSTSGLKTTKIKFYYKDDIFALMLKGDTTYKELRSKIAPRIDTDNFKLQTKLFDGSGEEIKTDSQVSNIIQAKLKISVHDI

GST-Bem1p WT (yeast) = target: T2, GST-Bem1p WT (yeast) (UniProt P29366)
T2 sequence: T1 sequence with A321F

GST-hExo70 (human Exo70) = GST-hExo70 (human Exo70) (human, UniProt Q9UPT5 1-735)
GST-Exo70p (yeast Exo70) = GST-Exo70p (yeast Exo70) (yeast, UniProt P19658 1-623)

binding (GST-Bem1p F321A (yeast)): no binding | binding (GST-Bem1p WT (yeast)): binds
Molecule: His-Exo70p (from UniProt P19658 1-623)

binding (GST-hExo70 (human Exo70)): binds | binding (GST-Exo70p (yeast Exo70)): binds
Molecule: full length endogenous GIV (from UniProt Q3V6T2-3 1-1870)

binding (GST-hExo70 (human Exo70)): binds
B1: His-Bem1p (natural protein, yeast, UniProt P29366 1-551, looked up)
chain: T1 sequence with A321F
